Structures can show the parent of a compound that is named as a salt. This is one part of the list. Single values are uncertain here, since repeats match poorly.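 The cells were human embryonic kidney cells carrying a Renilla luciferase gene, driven by the HSV-TK promoter, on a plasmid put in briefly by transfection. This is the first-round screen of about ten thousand compounds, looking for ones that raise reporter output.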

In this assay the test system is HEK 293FT. Briefly: log relative Renilla luciferase luminescence (reporter expression vs reference, reference not stated) (log (base not stated)); higher = higher recombinant reporter expression. Particulars: 10 µM; time after transfection 48 h.
With `O=P1(NCCCl)OCCCN1CCCl` (stereo not given) [Ifosfamide], the log is -0.0257.

As to `O=C1Nc2ccc(Br)cc2C(c2ccccc2Cl)=NC1O` (stereo not given) [3-Hydroxyfenazepam], the log amounted to 0.0217.

For `CCCCCCCCCC(=O)O[C@H]1CC[C@H]2[C@@H]3CCC4=CC(=O)CC[C@]4(C)[C@H]3CC[C@]12C` [Testosterone decanoate], the log amounted to 0.0416.

Take `c1ccc2c(c1)Sc1ccccc1N2CC1CN2CCC1CC2` (stereo not given) [Mequitazine]: the log amounted to 0.0725.

Turning to `COc1cc2c(cc1OC)-c1c(OC)c(OC)cc3c1[C@H](C2)N(C)CC3` [Glaucine], the log was -0.00771.

Turning to `Clc1ccc(C(OCCN2CCCCC2)c2ccccc2)cc1` (stereo not given) [Cloperastine Hydrochloride], the log was -0.102.

Take `O=C1CNC(c2ccccc2Cl)c2cc(Br)ccc2N1` (stereo not given) [Dihydrofenazepam]: the log was -0.027.

On to `Oc1c(Br)cc(-c2cc(Br)c(O)c(Br)c2O)c(O)c1Br` [Tebrofen], for which the log came out at 0.0874.

Regarding `c1cnc(N2CCNCC2)nc1` [Pyrimidinylpiperazine], the log is 0.0329.

Take `O=C(O)CCC(=O)OC1N=C(c2ccccc2Cl)c2cc(Br)ccc2NC1=O` (stereo not given) [Cinazepam]: the log amounted to 0.0576.

With `O=P(N1CC1)(N1CC1)N1CCN(P(=O)(N2CC2)N2CC2)CC1` [Dipin], the log came to 0.0518.

With `COc1ccc2[nH]cc(CCN(C)C)c2c1` [Methoxydimethyltryptamine], the log came out at 0.0125.

Take `O=C1CN=C(c2ccccc2Cl)c2cc(Cl)ccc2N1` [Delorazepam]: the log was found to be 0.084.

Regarding `NCCc1c[nH]c2ccc(OCc3ccccc3)cc12` [5-Benzyloxytryptamine], the log came out at 0.0125.

Turning to `CC(=O)O[C@H]1CC[C@H]2[C@@H]3CCC4=CC(=O)CC[C@]4(C)[C@H]3CC[C@]12C` [Testosterone acetate], the log was -0.00108.

As for `COc1ccc(-c2cc(=O)c3c(OC)c(OC)c(OC)cc3o2)cc1` [Tetramethylscutellarein], the log is -0.00347.

Regarding `CNCC(=O)c1ccc(O)c(O)c1` [Adrenalone], the log stood at 0.0664.

Turning to `NC(CP(=O)(O)O)C(=O)O` (stereo not given) [Aminophosphonopropionic acid], the log was -0.0949.

On to `CN1C(=O)N(C)C2C1N(C)C(=O)N2C` (stereo not given) [Mebicar], for which the log is -0.00589.

As for `CC(=O)O[C@H]1C[C@H](O[C@H]2[C@@H](O)C[C@H](O[C@H]3[C@@H](O)C[C@H](O[C@H]4CC[C@@]5(C)[C@H](CC[C@@H]6[C@@H]5C[C@@H](O)[C@]5(C)[C@@H](C7=CC(=O)OC7)CC[C@]65O)C4)O[C@@H]3C)O[C@@H]2C)O[C@H](C)[C@H]1O` [Alpha-Acetyldigoxin], the log was -1.24.

On to `C[C@]12CC[C@H]3[C@@H](CCC4=CC(=O)CC[C@@H]43)[C@@H]1CCC2=O` [Norandrostenedione-19], for which the log is 0.0539.

For the molecule `COc1ccn(C)c(=O)c1C#N` [Ricinine], the log was -0.0795.

As for `O=[N+]([O-])O[C@H]1CO[C@H]2[C@@H]1OC[C@H]2O` [Isosorbide-2-mononitrate], the log is 0.1.

As for `CCOC(=O)c1cncn1[C@H](C)c1ccccc1` [Etomidate; D-isomer], the log was -0.0545.

As for `Cc1[nH]c(=O)n(C(C)(C)C)c(=O)c1Cl` [Terbacil], the log is -0.0781.

For `Nc1nsc(N)n1` [Amtizole], the log came to 0.0362.

On to `CCC1(c2ccccc2)C(=O)NC(=O)N(C)C1=O` (stereo not given) [Methylphenobarbital], for which the log is -0.382.

As to `NNC(=O)CN1C(=O)CN=C(c2ccccc2)c2cc(Br)ccc21` [Gidazepam], the log amounted to 0.109.

With `Cn1c(=O)c2ncnnc2n(C)c1=O` [Fervenulin], the log was -0.398.

Regarding `CC(C)(C)C(=O)C(Oc1ccc(Cl)cc1)n1cncn1` (stereo not given) [Triadimefon], the log was -0.114.

Regarding `C[C@]12CC[C@H]3[C@@H](CCC4=C[C@@H](O[C@@H]5OC[C@@H](O[C@@H]6O[C@H](CO)[C@@H](O)[C@H](O)[C@H]6O)[C@H](O)[C@H]5O)CC[C@@]43C=O)[C@@]1(O)CC[C@@H]2C1=CC(=O)OC1` [Hyrcanoside], the log was -1.18.

For the molecule `Cc1nc2ccccc2c(=O)n1-c1ccccc1Cl` [Mecloqualone], the log turned out to be 0.055.

For `C[C@]12CC[C@H](O)C[C@@]1(O)CC[C@@H]1[C@@H]2CC[C@]2(C)[C@@H](C3=CC(=O)OC3)CC[C@]12O` [Periplogenin], the log is -1.1.

Take `COc1oc([C@H]2C/C(=C/C(C)=C/c3ccc([N+](=O)[O-])cc3)CO2)c(C)c(=O)c1C` [Aureothin]: the log was -1.27.

As for `CN1c2ccccc2C(NCCCCCCC(=O)O)c2ccc(Cl)cc2S1(=O)=O` (stereo not given) [Tianeptine sodium], the log was -0.0668.

The values above are taken from the supplement of paper PMC7024190.
